These are yes or no findings as the source states them, for the method shown. Binding seen in cells or lysates may run through a third protein. Here binding means that the protein was enriched with, or labelled near, the bait; the list need not be complete.

One substance from publication doi:10.1101/2023.11.06.565240 can be followed below.

In the assay the target is T1, EIF2A (human (endogenous in HEK293T)) (UniProt Q9BY44).
T1 sequence: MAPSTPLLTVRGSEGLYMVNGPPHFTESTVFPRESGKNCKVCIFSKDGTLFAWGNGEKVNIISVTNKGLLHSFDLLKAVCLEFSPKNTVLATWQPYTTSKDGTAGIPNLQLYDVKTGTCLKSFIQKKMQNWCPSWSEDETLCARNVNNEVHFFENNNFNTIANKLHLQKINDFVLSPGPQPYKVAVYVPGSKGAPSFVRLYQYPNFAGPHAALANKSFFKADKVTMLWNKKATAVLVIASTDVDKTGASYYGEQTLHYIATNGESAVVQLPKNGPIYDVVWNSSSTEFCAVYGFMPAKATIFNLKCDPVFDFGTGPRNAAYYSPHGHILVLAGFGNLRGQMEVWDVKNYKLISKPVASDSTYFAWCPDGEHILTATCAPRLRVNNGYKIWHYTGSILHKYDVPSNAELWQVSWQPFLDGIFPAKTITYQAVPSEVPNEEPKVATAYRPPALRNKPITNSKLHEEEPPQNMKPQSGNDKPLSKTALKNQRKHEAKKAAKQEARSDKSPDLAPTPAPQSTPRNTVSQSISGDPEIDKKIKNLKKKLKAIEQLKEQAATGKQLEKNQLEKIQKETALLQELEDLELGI
In words: affinity purification with mass spectrometry.

For the substance “mitochondrial ribosomal small subunit MRPS9 (human (endogenous in HEK293T))”, the binding entry is on record as “binds”.
